In patent US4256462A, “Method and composition for determination of n-nitrosamines” (University of Iowa Research Foundation, priority 1979, dated 1981):

Assay: Denitrosation of NDELA with sulfuric acid reagent, NO by chemiluminescence (Example 16)

With O=NN(CCO)CCO [NDELA, N-nitrosodiethanolamine] the “Integrated Response” value (NDELA 0.76 ppb, acetic acid 58%, sulfuric acid 16%, water 22%, NaI 0.4%) was 520, the “Integrated Response” value (NDELA 1.51 ppb, acetic/sulfuric acid reagent) was 600 and the “Integrated Response” value (NDELA 3.78 ppb, acetic/sulfuric acid reagent) was 890. The “Integrated Response” value (NDELA 7.57 ppb, acetic/sulfuric acid reagent) was 1303, the “Integrated Response” value (NDELA 22.70 ppb, acetic/sulfuric acid reagent) was 2800 and the “Integrated Response” value (NDELA 37.84 ppb, acetic/sulfuric acid reagent) was 4000. The “Integrated Response” value (NDELA 53.00 ppb, acetic/sulfuric acid reagent) was 5750 and the “Integrated Response” value (NDELA 75.68 ppb, acetic/sulfuric acid reagent) was 7900.
